The other results are listed elsewhere or left out.

The target of the assay is T1, OsSMF1 (Oryza sativa, UniProt Q6ZLB0 1-436).
T1 sequence: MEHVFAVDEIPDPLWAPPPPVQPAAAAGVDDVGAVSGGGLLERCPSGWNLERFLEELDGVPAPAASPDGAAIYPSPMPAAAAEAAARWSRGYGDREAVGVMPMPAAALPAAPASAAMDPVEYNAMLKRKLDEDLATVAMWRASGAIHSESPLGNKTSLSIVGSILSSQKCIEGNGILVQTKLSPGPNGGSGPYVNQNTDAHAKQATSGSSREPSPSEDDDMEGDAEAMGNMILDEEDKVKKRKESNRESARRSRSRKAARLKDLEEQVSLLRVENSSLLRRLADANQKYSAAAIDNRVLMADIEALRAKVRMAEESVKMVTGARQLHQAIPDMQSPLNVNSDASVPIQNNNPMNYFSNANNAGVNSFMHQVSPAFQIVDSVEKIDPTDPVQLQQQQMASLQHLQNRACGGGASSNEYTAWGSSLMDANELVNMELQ
Kind of assay: protein-binding microarray (RPBM); PBS, 2% BSA, 51.3 ng/ul salmon testes DNA, 50 uM zinc acetate, 200 nM TF, 25 C, 1 h; high values mean tight binding. Conditions: protein: recombinant; tags: N-terminal polyhistidine and DsRed monomer fusion (pET32a); chain copies: 2; label: CyDye5-dUTP incorporated in the synthesized complementary strand; 3' TTTTT single-stranded linker to array surface; dsDNA, one strand shown. The gist of the method: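 Binding signal is defined as the fluorescence intensity of each feature in arbitrary units, read on an Axon 4000B scanner. Transcription factors with N-terminal polyhistidine and DsRed fusions came from E. coli BL21-CodonPlus and were purified on Ni–NTA. They were incubated at 200 nM for 1 h at 25 °C on a custom Agilent array that had been made double-stranded with Cy5-dUTP, with 50 µM zinc acetate present, and the array was washed.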
For “GAGCTTCATCAGGACTGGTGGGTAAGCCCCATCATCTTGACGGAGTCACCTAGTGCAG”, the binding signal is 3200 fluorescence intensity (a.u.). As for “ATACAAAACTAGAAACAAGACATACCAACATCACAACATGCGGAGTCACCTAGTGCAG”, the binding signal is 26100 fluorescence intensity (a.u.).

On to “TGTTCCATGGATATACATGTCATATACTTATTTTCTAGCCCGGAGTCACCTAGTGCAG”, for which the binding signal was 3930 fluorescence intensity (a.u.).

Turning to “TGCAAGCCCCGCTGAGCTGCACATGACTAGGACCCTATTTCGGAGTCACCTAGTGCAG”, the binding signal is 8240 fluorescence intensity (a.u.).

As to “CCGTCTCCACGCACTCGAACGTCACCGACGACCCCGGCAGCGGAGTCACCTAGTGCAG”, the binding signal was 5490 fluorescence intensity (a.u.).

With “CTGCCAAGTAGGGTCCTGCTTGCTGAGGTCATACCCCACGCGGAGTCACCTAGTGCAG”, the binding signal is 3560 fluorescence intensity (a.u.). Take “AAGGTAGGTTGTAGAACTGATGATCTGTCAATGGTGAAATCGGAGTCACCTAGTGCAG”: the binding signal is 4940 fluorescence intensity (a.u.). In the case of “CCATTAATTTCTACGTAAGCATTCGTAGCTATGGAGGAGTCGGAGTCACCTAGTGCAG” it was 4530 fluorescence intensity (a.u.). In the case of “CGGGGAGAGTCCGCCGCAGCGCCAGCGCATTCGGCGACACCGGAGTCACCTAGTGCAG” it was 3890 fluorescence intensity (a.u.). The figure for “TCACGTTGAAGTGACTAGATGGGAACTAATATTTTATTGCCGGAGTCACCTAGTGCAG” is 4230 fluorescence intensity (a.u.); for “ATTGGGTGCTTCTTCCAACCCCATCAGCTTGGCAATGACACGGAGTCACCTAGTGCAG” it is 3450 fluorescence intensity (a.u.); for “TGACGGGGTTTGGTCTCATCTTTCGTGGTCAGATTTGCCGCGGAGTCACCTAGTGCAG” it is 4730 fluorescence intensity (a.u.). On to “ACTGGCTAGCAAAACGAAGTATTGTGCAGTTTGGCGGGAACGGAGTCACCTAGTGCAG”, for which the binding signal is 35100 fluorescence intensity (a.u.). The figure for “TCAAGTGATTTTGCCTAGACACAAGAGTCCACGTGGTTGGCGGAGTCACCTAGTGCAG” is 7160 fluorescence intensity (a.u.); for “GCAAAATAGGCTTATTCCATGACGAATGCTTCTCTCCCCGCGGAGTCACCTAGTGCAG” it is 3330 fluorescence intensity (a.u.); for “AGGGACGAGCCGGGCGGACAAGAGGACGACAGCACGCGAGCGGAGTCACCTAGTGCAG” it is 33400 fluorescence intensity (a.u.). On to “ACCAGTGGGCGCCACGCCATGAACAGCTCAGCTCACCGCACGGAGTCACCTAGTGCAG”, for which the binding signal is 5150 fluorescence intensity (a.u.). Regarding “GAGAGGTCTGCCCCGTGGTCAAGCCGTGCCGCGTCGTCGTCGGAGTCACCTAGTGCAG”, the binding signal was 4650 fluorescence intensity (a.u.).

Regarding “GACTGACTCCATGTCGCGACTAATCACACGTCAGGATCGACGGAGTCACCTAGTGCAG”, the binding signal was 8650 fluorescence intensity (a.u.). “AATATAATCTTCGAGGAATCTATGATGTGGCAGCTAAGGACGGAGTCACCTAGTGCAG”: the binding signal is 13500 fluorescence intensity (a.u.). The figure for “TACTGGAGTGCAAAATTGCCATAAATTTTGCCAAGTATGCCGGAGTCACCTAGTGCAG” is 3620 fluorescence intensity (a.u.); for “GTGGTACTACTACGTACGCGGAGTAATATTTGTTTTAGTACGGAGTCACCTAGTGCAG” it is 3510 fluorescence intensity (a.u.); for “TGACATGTGAGCCCAATGTGTCAGCAACATTAGCAACGATCGGAGTCACCTAGTGCAG” it is 7750 fluorescence intensity (a.u.). For the sequence “AACATCCATCACTGCAGCAAATCATCATCATCATCATCATCGGAGTCACCTAGTGCAG”, the binding signal was 4660 fluorescence intensity (a.u.). In the case of “GAGAGAGAGAGAGAGGGGAGGGGAGGGCGTGTGCTCGCGCCGGAGTCACCTAGTGCAG” it was 5190 fluorescence intensity (a.u.); in that of “GCCTCGCTGACGCCGCCGGCGGCGCGCGCGCCGTCTCCCTCGGAGTCACCTAGTGCAG”, 4140 fluorescence intensity (a.u.). In the case of “ACGAATCGTGACGTCCGCCGTGTCGCGAGGCGAGAGGGGCCGGAGTCACCTAGTGCAG” it was 3870 fluorescence intensity (a.u.); in that of “TTCCCGAGGATATATAATCGATCATGCTACACGTGACATACGGAGTCACCTAGTGCAG”, 3240 fluorescence intensity (a.u.); in that of “CACCGACCACCGCCACGCGCTGCTCCACCACCGCGTCCTCCGGAGTCACCTAGTGCAG”, 3540 fluorescence intensity (a.u.). The figure for “ATGAGGGGTCGGGGTTGGGCGGCGTGGGCACGGGCTCGAGCGGAGTCACCTAGTGCAG” is 4600 fluorescence intensity (a.u.); for “AACGGAGCGTGACGCAACGCAAGTTACGCAACACGGTCGCCGGAGTCACCTAGTGCAG” it is 4000 fluorescence intensity (a.u.); for “ACGGAATGAACACTAATTTACTTAATACATAGAACCACGGCGGAGTCACCTAGTGCAG” it is 23300 fluorescence intensity (a.u.).

As to “TGTTGTCTGCCTTAGTGCCTTGTGCATTTGTTCTTAAACCCGGAGTCACCTAGTGCAG”, the binding signal was 3240 fluorescence intensity (a.u.). Consider “GTGTTTATATAAGTGTTTGCATATGTACTATGTTTTAATACGGAGTCACCTAGTGCAG”, for which the binding signal is 3730 fluorescence intensity (a.u.). The figure for “ATACGCCTACTCCGTCTAAACTGAGACAGAATCACGGGCCCGGAGTCACCTAGTGCAG” is 19000 fluorescence intensity (a.u.); for “CTCCCTTCCCTTCCCTTCCTCTCGCCGAACCAACGCGGAACGGAGTCACCTAGTGCAG” it is 3360 fluorescence intensity (a.u.); for “TGGGAGGGAGGGAGTATTCCGTTTGAGTGCAACAACGCTACGGAGTCACCTAGTGCAG” it is 3270 fluorescence intensity (a.u.). As for “CCCTCATGTCAGGTGAGGTGTACAGTAGTCGGCGTCTCATCGGAGTCACCTAGTGCAG”, the binding signal is 3590 fluorescence intensity (a.u.). In the case of “ATATTACCATGAAAAGATTACACCTGGCTTGACCATAACCCGGAGTCACCTAGTGCAG” it was 3910 fluorescence intensity (a.u.). The figure for “GCGGGCGGCGGTCGAATGGGAAGGCGCCACGTGGCACTAACGGAGTCACCTAGTGCAG” is 24200 fluorescence intensity (a.u.); for “TTAGCCACACCATTGCTGATTTGCACACACCTCAACATAGCGGAGTCACCTAGTGCAG” it is 4040 fluorescence intensity (a.u.); for “ACACACGCGTTATTTGGGGTTCCGGCCCAATACGTGGCCCCGGAGTCACCTAGTGCAG” it is 5850 fluorescence intensity (a.u.).

The values are drawn from PMC7819943, “Rice protein-binding microarrays: a tool to detect cis-acting elements near promoter regions in rice”.
